According to patent US20230130132A1, “PHARMACEUTICAL COMPOSITIONS COMPRISING AMPHIPHILIC PEPTIDES AND METHODS OF USE THEREOF” (BONE SCI. BIO LTD., priority 2020, published 2023):
At least one peptide structure holds a part that was inferred or is arguable (an end, a ring closure or a residue). No end group written: not given here.

How the values were obtained:
pH of the composition = type: physicochemical
[1] = Hydrogel formation, clarity and strength assessment (flipped vial quick assay); type: physicochemical; set-up: key to Clarity: (+) indicates a clear solution or hydrogel; −: (-) indicates a cloudy, non-homogeneous hydrogel
[2] = 1% peptide (titrated with HCl to pH 6 prior to lyophilization) in DDW, no NAC, Table 34
[3] = 1% peptide in NAC 0.8% solution in DDW, Table 31
[4] = 1% peptide, NAC 0.8% in 37 mM NaOH solution, Table 32
[5] = 4% peptide (titrated with HCl to pH 6 prior to lyophilization) in DDW, no NAC, Table 34
[6] = 4% peptide in NAC 0.8% solution in DDW, Table 31
[7] = 4% peptide, NAC 0.8% in 1 mM NaOH solution, Table 32
[8] = […] peptide (titrated with HCl to pH 6 prior to lyophilization) in DDW, no NAC, Table 34
[9] = […] peptide, NAC 0.8% in 19 mM NaOH solution, Table 32
[10] = […] peptide, NAC 5% in 290 mM NaOH solution, Table 33

## PDFDFDFDFDFDP [PFD5, Pro-(Asp-Phe)5-Asp-Pro]
pH of the composition; [2]
  pH: 6.24
pH of the composition; [3]
  pH: 4.08
pH of the composition; [4]
  pH: 6.29
pH of the composition; [5]
  pH: 6.68
pH of the composition; [6]
  pH: 6.48
pH of the composition; [7]
  pH: 6.07
pH of the composition; [8]
  pH: 6.64
pH of the composition; [9]
  pH: 6.35
pH of the composition; [10]
  pH: 6.61
[1]; [2]
  Clarity: +
  Hydrogel Formation: −
[1]; [3]
  Clarity: −
  Hydrogel Formation: −
[1]; [4]
  Clarity: +
  Hydrogel Formation: −
[1]; [5]
  Clarity: +
  Hydrogel Formation: −
[1]; [6]
  Clarity: +
  Hydrogel Formation: + ((+) indicates that gel was formed)
[1]; 4% peptide in water, no NAC
  Hydrogel Formation: no hydrogel was formed
[1]; [7]
  Clarity: +
  Hydrogel Formation: + ((+) indicates that gel was formed)
[1]; [8]
  Clarity: +
  Hydrogel Formation: −
[1]; [9]
  Clarity: +
  Hydrogel Formation: + ((+) indicates that gel was formed)
[1]; [10]
  Clarity: +
  Hydrogel Formation: + ((+) indicates that gel was formed)
[1]; […] peptide, addition of 0.8% NAC
  Hydrogel Formation: gelation
